# Library screen at single concentrations

Measurements from “University of Dundee, Small-Polar-MMV Screening Library” (2021), ChEMBL document CHEMBL3988442.

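Assay of Toxoplasma gondii numbers, read through their beta-galactosidase reporter with a colour substrate. Concentration: 10 µM. Higher reads as fewer parasites (inferred from which compounds were picked for retests). Size under these conditions: about 67,000 compounds, about 260 of them at 50% or above in at least one test.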

Results are given as percent effect. How 0% and 100% were set is not recorded. Most values in the screen are low, and negative values occur. The compounds are a random part of those screened.

Compound	percent effect
COC(=O)c1cccc(S(=O)(=O)NC(=O)c2ccccc2F)c1	1.311
CN1CCC(N(C)c2ccccc2CNCc2ccco2)CC1	33.92
CCOCCn1nc(C)cc1C(=O)N1CCC2(CC1)[C@H](O)C[C@@H]2OCC	1.379
CC(NC(=O)NCCCN1CCCC1)c1nncn1C (stereo unspecified)	8.839
O=C(NCCCNC(=O)c1cccc(O)c1)Nc1ccc(Cl)cc1	27.41
CCCN(C)C(=O)c1ccc2c(c1)[nH]c(=O)n2CCOCC	1.616
COCc1cccc(NC(=O)N(C)Cc2ncc(C)c(OC)c2C)c1	-13.96
CCS(=O)(=O)N1CCc2onc(CNc3ncccn3)c2C1	4.762
O=C(NCC1CC1)C1CCC2(CCN(C(=O)c3ccncc3)CC2)O1.O=C(O)C(F)(F)F (stereo unspecified)	14.84
Cl.Cl.c1cnc(NCc2cncc3c2CCN(Cc2cccs2)C3)nc1	-1.719
CC(C)CCN(C)Cc1ccccc1-c1nc(C(C)C)cc(=O)[nH]1	2.588
O=C(O)C(F)(F)F.[H][C@@]12CN(Cc3cccs3)C[C@]1([H])C(=O)N(CC)C2	-1.72
O=C(CCCn1cncn1)NC1CCc2nccn2C1 (stereo unspecified)	14.04
Cc1cc(C(=O)N2CC[C@H](N3CCN(C)CC3)[C@H](CCCO)C2)n(C)n1	15.09
Cc1ccc(-c2csc(N)c2C#N)c(C)c1	18.76
CC(C)n1cc(S(=O)(=O)N2CCCC(N3CCCCC3)C2)cn1 (stereo unspecified)	-6.464
COc1ccccc1CC(=O)N1CCC(NCc2ccc(C)o2)CC1	-5.397
CCc1cc(N2CCC(NC3CN4CCC3CC4)CC2)nc(N(C)C)n1 (stereo unspecified)	15.59
COCCC1(C(=O)O)CCCN(Cc2ccccc2OCCO)C1 (stereo unspecified)	3.47
O=C1CC2(CCN(C(=O)C3CCCCC3)C2)Nc2ccccc2N1 (stereo unspecified)	-5.203
COCC1CCN(C(C(=O)O)c2c(F)cccc2OC(C)C)CC1 (stereo unspecified)	4.945
CC(C)C(C)NC(=O)Nc1ccc(CC(N)=O)cc1 (stereo unspecified)	-1.836
[H][C@@]12COC[C@@H](Cc3nc(C)no3)[C@]1([H])CN(c1cc(OC)ncn1)C2	-25.13
COc1c(NC(=O)N(C)CCOc2ccccc2)c(C)nn1C	21.15
O=C(O)C(F)(F)F.[H][C@]12CCC[C@@H](CNc3cnccn3)[C@@]1([H])CN(Cc1cccnc1)C2	3.008
CNC(=O)NC(=O)CCSc1ccccc1Cl	16.1
O=C(Cn1cc(-c2ccccc2)ncc1=O)Nc1ncc[nH]1	-25.15
CN(CCc1ccccc1)Cc1c(C2CC2)[nH]c2ncccc12	20.59
Cc1nccn1CCCn1cncc1-c1ccc2c(c1)CCC(C)N2C.Cl (stereo unspecified)	-12.38
COCCCNS(=O)(=O)c1ccc(N2CCCCS2(=O)=O)cc1	3.859
[H][C@]12CC[C@@]3(N=C(CC)N(CC)C3=O)[C@@]1([H])CN(S(=O)(=O)CC(C)C)C2	-6.321
COc1cc(C(=O)Nc2nc(C)no2)ccc1OC1CCCC1	5.793
[H][C@]12CC[C@@]3(N=C(CC)N(CC(C)C)C3=O)[C@@]1([H])CN(CC(=O)N(C)C)C2	-13.71
N[C@@H]1CC[C@@H](NC(=O)c2ccccc2OC(F)(F)C(F)F)C1	-3.329
COC1(CNS(=O)(=O)c2ccccc2Cl)CCSC1 (stereo unspecified)	-6.62
O=C(O)C(F)(F)F.[H][C@@]12CCN(Cc3ccco3)C[C@@]1([H])[C@H](C(=O)NCC1CC1)CCO2	-1.389
CCOCC(O)CN1CCN(C(=O)Cc2ccccc2Cl)CC1 (stereo unspecified)	-67.18
Cc1ccc(N2CCC3(CC2)CC(OCC(=O)N(C)C)CO3)nn1 (stereo unspecified)	-0.4841
O=C(c1ccc[nH]1)N1CCC2(CC1)C(=O)Nc1ccccc12	0.6911
CC(C)C(NC(=O)Nc1cnn(CC(N)=O)c1)c1ccc(Cl)cc1 (stereo unspecified)	2.899
O=C(O)C(F)(F)F.O=C(O)C(F)(F)F.c1ccc(O[C@H]2CO[C@@]3(CCCN(Cc4nccs4)C3)C2)nc1	1.417
Cc1ccc(CN2CCC3(CC(C(=O)NC4CCC4)=NO3)C2)o1 (stereo unspecified)	5.054
CCc1nnc2n1CCN(C(C(=O)N(CC)CC)c1ccccc1)C2 (stereo unspecified)	10.21
CCS(=O)(=O)Nc1cnn(Cc2cccc(F)c2)c1	6.087
CCC(O)(CNCc1ncc[nH]1)c1ccc(Br)cc1 (stereo unspecified)	14.38
CN1CCC(CCc2ccnc(NC(=O)c3ccccn3)c2)CC1	9.134
CC(=O)N(Cc1ccoc1)C1CCCCC1	7.021
O=C(O)C(F)(F)F.[H][C@]12CCC(=O)N(c3ccccc3)[C@@]1([H])CCN2C(=O)c1ccc(C)nc1	-5.161
CS(=O)(=O)N1CCC(Nc2ccnc3ccc(Cl)cc23)CC1	-5.486
Cl.NC(=O)c1ccc(CNC2CC2)cc1	-2.697
CCOC(=O)CCC(=O)N1CCC(Oc2ncccc2Cl)CC1	11.33
Cn1nc(C2CCCN(C(=O)CO)C2)cc1O (stereo unspecified)	9.289
Cc1[nH]c2c(F)cccc2c1CC(=O)N1CCN(C2CCSCC2)CC1	-15.25

For reference, 5 entries once more:

O=C(O)C(F)(F)F.[H][C@]12CCC(=O)N(c3ccccc3)[C@@]1([H])CCN2C(=O)c1ccc(C)nc1 read -5.161%.
N[C@@H]1CC[C@@H](NC(=O)c2ccccc2OC(F)(F)C(F)F)C1 read -3.329%.
CC(C)C(C)NC(=O)Nc1ccc(CC(N)=O)cc1 (stereo unspecified) read -1.836%.
COc1cc(C(=O)Nc2nc(C)no2)ccc1OC1CCCC1 read 5.793%.
O=C(Cn1cc(-c2ccccc2)ncc1=O)Nc1ncc[nH]1 read -25.15%.